# For at least one compound, name, drawing or mass did not settle the structure.
# System: w794 duplex DNA (SV40 nucleosomal DNA insert in M13mp10)
# Test: DNA alkylation efficiency and selectivity, thermally-induced strand cleavage of 5′ end-labeled duplex DNA (PAGE)
# Format: biochemical
# Settings: 25° C., 24 hours
# Source text: The DNA alkylation properties of the compounds including those of CBI-X9-Y9 (24), CBI-X11-Y9 (25) and CBI-X10-Y10 (26) (FIG. 7) were examined within a 150 base-pair segment of duplex DNA and compared with (+)-duocarmycin SA (2), (+)-CBI-CDPI2 (27) and (+)-CBI-indole2 (28). One clone of phage M13mp10 was selected for the study that contained the SV40 nucleosomal DNA insert w794 (nucleotide no. 5238-138) (Ambrose, C., et al., J. Mol. Biol. 1989, 210, 255). The alkylation site identification and the assessment of the relative selectivity among the available sites was obtained by thermally-induced strand cleavage of the singly 5′ end-labeled duplex DNA after exposure to the agents. After treatment of the end-labeled duplex DNA with a range of agent concentrations, the unbound agent was removed by EtOH precipitation of the DNA. Redissolution of the DNA in aqueous buffer, thermolysis (100° C., 30 min) to induce strand cleavage at the sites of DNA alkylation, denaturing high resolution polyacrylamide gel electrophoresis (PAGE) adjacent to Sanger dideoxynucleotide sequencing standards, and autoradiography led to identification of the DNA cleavage and alkylation sites (Boger, D. L., et al., Tetrahedron 1991, 47, 2661). […]
structure (smiles),measurement,value
"CC(C)(C)OC(=O)N1CC2CC23C1=CC(=O)c1ccccc13 (single isomer, unassigned; (+)) [(+)-N-Boc-CBI]",concentration at which DNA alkylation is detectable,10^−1-10^−2

# From patent US20050014700A1, “Cbi analogues of cc-1065 and the duocarmycins” (priority 2001, published 2005)
